From KR20240007815A
These are yes or no findings as the source states them, for the method shown. Some results given as binding are weak or reduced against the parent protein; the word gives no strength.

Target: 원숭이(Cynomolgus monkey) BDCA-2 (CLEC4C) (Cynomolgus monkey)
Experiment: flow cytometry on 293 cells expressing cyno BDCA-2, anti-human IgG-APC secondary

| binding | Binder |
| --- | --- |
| binds | 201A 인간화 항체 201H (antibody, human IgG1, kappa, V domains shown) VH: EVQLVESGGGLVKPGGSLRLSCAASGFTFSSYTMSWVRQAPGKGLEWVATISSGGSYTYYPDSVKGRFTISRDNAKNSLYLQMNSLRAEDTAVYYCTRDRGDYDYDEGYYFDYWGQGTLVTVSS VL: DIVLTQSPASLAVSPGQRATITCRASASVDSYGNSFMHWYQQKPGQPPKLLIYLASNLESGVPARFSGSGSRTDFTLTINPVEANDTANYYCQQNNEDPRTFGGGTKVEIKR |
| binds | 201A 키메라 항체 201C (antibody, human IgG1, kappa, V domains shown) VH: DVKLVESGGGLVKPGGSLNLSCAASGFTFSSYTMSWVRQNPEKRLEWVATISSGGSYTYYPDSVKGRFTISRDNAKNTLYLQMSSLKSEDTAMYYCTRDRGDYDYDEGYYFDYWGQGTTLTVSS VL: NIVLTQSPASLAVSLGQRATISCRASASVDSYGNSFMHWYQQKPGQPPKLLIYLASNLESGVPARFSGSGSRTDFTLTIDPVEADDAATYYCQQNNEDPRTFGGGTKLEIKR |
